Results are given in words; binding and its absence hold for the method and conditions named. For part of these data: In cells and extracts the contact can be indirect. Some entries that bind do so weakly or less than the wild type. Each block holds one molecule with its values, some of them ahead of it.
Legend:
[1] = molecular target: human adenylyl cyclase-associated protein 1 (CAP1), wild type (human) (UniProt Q01518); assay: BLItz system, direct binding to CAP1 (FIG. 2C)
[2] = molecular target: human adenylyl cyclase-associated protein 1 (CAP1), wild type (human) (UniProt Q01518); assay: surface plasmon resonance, direct binding analysis (FIG. 1E)
[3] = molecular target: human adenylyl cyclase-associated protein 1 (CAP1), wild type (human) (UniProt Q01518); assay: immunoprecipitation of a multi-protein complex (FIG. 4P)
[4] = molecular target: human adenylyl cyclase-associated protein 1 (CAP1), wild type (human) (UniProt Q01518); assay: BLItz system, direct binding to CAP1 (FIG. 2C); wild-type reference
[5] = molecular target: hPCSK9 fused to a non-fluorescent fragment of a fluorescent protein (pVN173) for bimolecular fluorescence complementation (human) (UniProt Q8NBP7); assay: bimolecular fluorescence complementation in living cells (FIG. 1C)
[6] = molecular target: human adenylyl cyclase-associated protein 1 (CAP1), wild type (human) (UniProt Q01518); assay: in vitro co-immunoprecipitation, HEK293 cells (FIG. 1F)
[7] = molecular target: wild-type human PCSK9 with Flag tag (wtPCSK9-Flag) (human) (UniProt Q8NBP7); assay: co-immunoprecipitation, HEK293 cells (FIG. 1G)
[8] = molecular target: endogenous mouse PCSK9 (liver lysate of wild-type mice) (mouse) (UniProt Q80W65); assay: immunoprecipitation of endogenous proteins from mouse liver lysate (FIG. 1A)
[9] = molecular target: caveolin-1 (immunoprecipitation experiment of FIG. 4P) (UniProt Q03135); assay: immunoprecipitation (FIG. 4P)
[10] = molecular target: wild-type PCSK9 (PCSK9 WT) (human) (UniProt Q8NBP7); assay: co-immunoprecipitation, HEK293 cells (FIG. 1H)
[11] = molecular target: T1, endogenous mouse CAP1 (liver lysate of wild-type mice) (mouse) (UniProt P40124); assay: immunoprecipitation from wild-type mouse liver lysates (FIG. 4Q)
T1 sequence (looked up): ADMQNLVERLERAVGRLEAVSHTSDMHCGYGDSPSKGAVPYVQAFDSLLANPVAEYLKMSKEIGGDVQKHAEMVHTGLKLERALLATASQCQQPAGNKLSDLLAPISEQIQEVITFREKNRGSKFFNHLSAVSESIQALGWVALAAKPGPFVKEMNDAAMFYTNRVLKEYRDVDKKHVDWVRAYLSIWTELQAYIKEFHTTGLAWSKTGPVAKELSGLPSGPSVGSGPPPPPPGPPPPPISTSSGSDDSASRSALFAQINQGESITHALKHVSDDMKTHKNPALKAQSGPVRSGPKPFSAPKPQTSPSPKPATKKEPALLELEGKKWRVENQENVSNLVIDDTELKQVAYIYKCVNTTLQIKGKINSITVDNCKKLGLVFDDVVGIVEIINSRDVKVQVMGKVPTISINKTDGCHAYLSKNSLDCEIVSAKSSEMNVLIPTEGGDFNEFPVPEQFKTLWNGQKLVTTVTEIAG

By UniProt entry, the sequences of proteins in these tests, tags left out. Where a name states a change or a piece, a line headed by the entry shows the natural chain unless it says otherwise. Residues count along the entry.
UniProt Q8NBP7: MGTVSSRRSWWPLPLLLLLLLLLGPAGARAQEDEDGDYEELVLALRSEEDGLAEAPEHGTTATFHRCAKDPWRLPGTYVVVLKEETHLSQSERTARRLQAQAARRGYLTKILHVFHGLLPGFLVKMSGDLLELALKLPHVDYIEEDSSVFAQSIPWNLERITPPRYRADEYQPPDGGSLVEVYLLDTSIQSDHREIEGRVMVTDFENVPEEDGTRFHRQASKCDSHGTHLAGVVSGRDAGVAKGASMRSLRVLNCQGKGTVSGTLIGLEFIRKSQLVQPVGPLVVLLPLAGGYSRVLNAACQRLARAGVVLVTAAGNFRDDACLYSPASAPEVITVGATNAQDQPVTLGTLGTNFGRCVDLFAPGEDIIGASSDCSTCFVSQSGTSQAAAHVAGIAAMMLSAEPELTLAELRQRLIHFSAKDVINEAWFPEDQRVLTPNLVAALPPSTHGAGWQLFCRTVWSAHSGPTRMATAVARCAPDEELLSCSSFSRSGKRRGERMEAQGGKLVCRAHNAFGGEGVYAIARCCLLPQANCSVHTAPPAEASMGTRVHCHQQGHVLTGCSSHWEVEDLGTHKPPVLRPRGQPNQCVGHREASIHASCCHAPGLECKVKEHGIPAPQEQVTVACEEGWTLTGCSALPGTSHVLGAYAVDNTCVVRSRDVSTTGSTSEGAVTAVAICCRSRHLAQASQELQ
UniProt Q80W65, residues 35-694: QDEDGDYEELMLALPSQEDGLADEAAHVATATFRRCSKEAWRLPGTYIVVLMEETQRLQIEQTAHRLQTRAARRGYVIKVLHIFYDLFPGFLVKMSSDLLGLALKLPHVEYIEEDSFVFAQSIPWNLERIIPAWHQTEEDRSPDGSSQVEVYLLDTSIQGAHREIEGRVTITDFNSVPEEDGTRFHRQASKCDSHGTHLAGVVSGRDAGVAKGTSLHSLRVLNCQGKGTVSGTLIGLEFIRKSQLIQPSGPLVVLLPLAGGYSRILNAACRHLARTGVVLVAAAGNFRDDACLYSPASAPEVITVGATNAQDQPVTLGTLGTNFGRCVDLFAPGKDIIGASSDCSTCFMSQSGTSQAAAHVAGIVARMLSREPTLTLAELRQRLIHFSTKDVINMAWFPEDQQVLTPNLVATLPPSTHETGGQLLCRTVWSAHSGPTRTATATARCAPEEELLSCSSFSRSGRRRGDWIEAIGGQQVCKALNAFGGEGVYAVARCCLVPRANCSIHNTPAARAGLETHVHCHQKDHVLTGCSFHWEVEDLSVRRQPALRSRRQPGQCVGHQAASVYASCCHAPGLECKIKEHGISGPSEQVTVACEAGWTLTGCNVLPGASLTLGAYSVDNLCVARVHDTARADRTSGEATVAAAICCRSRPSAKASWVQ

- binding [3]: binds
- binding [4]: binds
Molecule: wild-type PCSK9 (PCSK9 WT) (from UniProt Q8NBP7 31-692) (enzyme)

- binding [1]: binds
Molecule: PCSK9 A514T variant (from UniProt Q8NBP7 31-692) (enzyme)

- binding [5]: binds
Molecule: hCAP1 fused to a non-fluorescent fragment of a fluorescent protein (pVC155) for bimolecular fluorescence complementation (from UniProt Q01518 1-475)

- binding [8]: binds
B2: endogenous mouse CAP1 (liver lysate of wild-type mice) (protein, UniProt P40124 2-474, looked up)
chain: ADMQNLVERLERAVGRLEAVSHTSDMHCGYGDSPSKGAVPYVQAFDSLLANPVAEYLKMSKEIGGDVQKHAEMVHTGLKLERALLATASQCQQPAGNKLSDLLAPISEQIQEVITFREKNRGSKFFNHLSAVSESIQALGWVALAAKPGPFVKEMNDAAMFYTNRVLKEYRDVDKKHVDWVRAYLSIWTELQAYIKEFHTTGLAWSKTGPVAKELSGLPSGPSVGSGPPPPPPGPPPPPISTSSGSDDSASRSALFAQINQGESITHALKHVSDDMKTHKNPALKAQSGPVRSGPKPFSAPKPQTSPSPKPATKKEPALLELEGKKWRVENQENVSNLVIDDTELKQVAYIYKCVNTTLQIKGKINSITVDNCKKLGLVFDDVVGIVEIINSRDVKVQVMGKVPTISINKTDGCHAYLSKNSLDCEIVSAKSSEMNVLIPTEGGDFNEFPVPEQFKTLWNGQKLVTTVTEIAG

- binding [9]: binds
- binding [10]: binds
B3: human adenylyl cyclase-associated protein 1 (CAP1), wild type (other)
chain: MADMQNLVERLERAVGRLEAVSHTSDMHRGYADSPSKAGAAPYVQAFDSLLAGPVAEYLKISKEIGGDVQKHAEMVHTGLKLERALLVTASQCQQPAENKLSDLLAPISEQIKEVITFREKNRGSKLFNHLSAVSESIQALGWVAMAPKPGPYVKEMNDAAMFYTNRVLKEYKDVDKKHVDWVKAYLSIWTELQAYIKEFHTTGLAWSKTGPVAKELSGLPSGPSAGSGPPPPPPGPPPPPVSTSSGSDESASRSALFAQINQGESITHALKHVSDDMKTHKNPALKAQSGPVRSGPKPFSAPKPQTSPSPKRATKKEPAVLELEGKKWRVENQENVSNLVIEDTELKQVAYIYKCVNTTLQIKGKINSITVDNCKKLGLVFDDVVGIVEIINSKDVKVQVMGKVPTISINKTDGCHAYLSKNSLDCEIVSAKSSEMNVLIPTEGGDFNEFPVPEQFKTLWNGQKLVTTVTEIAG
notes: also called hCAP1; wtCAP1

Second part, the molecule before the results:

Molecule: PCSK9 S668R G670E double variant (from UniProt Q8NBP7 31-692) (enzyme)
- binding [1]: binds

Molecule: recombinant human proprotein convertase subtilisin/kexin type-9 (rhPCSK9) (from UniProt Q8NBP7 31-692) (enzyme)
- binding [2]: binds

Molecule: wild-type human PCSK9 with Flag tag (wtPCSK9-Flag) (from UniProt Q8NBP7 31-692) (enzyme)
- binding [6]: binds

B1: Src homology 3 binding domain (SH3BD) of CAP1, expressed alone (protein)
chain: LAWSKTGPVAKELSGLPSGPSAGSGPPPPPPGPPPPPVSTSSGSDESASRSALFAQINQGESITHALKHVSDDMKTHKNPALKAQSGPVRSGPKPFSAPKPQTSPSPKRATKKEPAVLELEGKKWR
- binding [7]: binds

B4: endogenous mouse caveolin-1 (liver lysate of wild-type mice) (protein, UniProt P49817 2-178, looked up)
chain: SGGKYVDSEGHLYTVPIREQGNIYKPNNKAMADEVTEKQVYDAHTKEIDLVNRDPKHLNDDVVKIDFEDVIAEPEGTHSFDGIWKASFTTFTVTKYWFYRLLSTIFGIPMALIWGIYFAILSFLHIWAVVPCIKSFLIEIQCISRVYSIYVHTFCDPLFEAIGKIFSNIRISTQKEI
- binding [11]: binds
